Source: the supplement of paper PMC12823440, “Inhibitors supercharge kinase turnover through native proteolytic circuits” (Nature, 2025)
Counter-ions that a name gives are not always drawn. This is one part of the list. Hit calls seldom repeat between salt and free forms of one compound.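 In K562 cells expressing nanoluciferase-fused kinases, luminescence was recorded at 4 h intervals between 2 and 18 h, normalized as percent of control with DMSO at 100% and a positive control at 0%. A significant (2 sigma) signal drop marks a time point as decreased. The authors' rule for a hit is not shown and takes in more than the number of time points.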

The chains behind the UniProt entries cited, without tags or fusion partners. Where a name states a change or a piece, a line headed by the entry shows the natural chain unless it says otherwise.
UniProt Q8IWU2: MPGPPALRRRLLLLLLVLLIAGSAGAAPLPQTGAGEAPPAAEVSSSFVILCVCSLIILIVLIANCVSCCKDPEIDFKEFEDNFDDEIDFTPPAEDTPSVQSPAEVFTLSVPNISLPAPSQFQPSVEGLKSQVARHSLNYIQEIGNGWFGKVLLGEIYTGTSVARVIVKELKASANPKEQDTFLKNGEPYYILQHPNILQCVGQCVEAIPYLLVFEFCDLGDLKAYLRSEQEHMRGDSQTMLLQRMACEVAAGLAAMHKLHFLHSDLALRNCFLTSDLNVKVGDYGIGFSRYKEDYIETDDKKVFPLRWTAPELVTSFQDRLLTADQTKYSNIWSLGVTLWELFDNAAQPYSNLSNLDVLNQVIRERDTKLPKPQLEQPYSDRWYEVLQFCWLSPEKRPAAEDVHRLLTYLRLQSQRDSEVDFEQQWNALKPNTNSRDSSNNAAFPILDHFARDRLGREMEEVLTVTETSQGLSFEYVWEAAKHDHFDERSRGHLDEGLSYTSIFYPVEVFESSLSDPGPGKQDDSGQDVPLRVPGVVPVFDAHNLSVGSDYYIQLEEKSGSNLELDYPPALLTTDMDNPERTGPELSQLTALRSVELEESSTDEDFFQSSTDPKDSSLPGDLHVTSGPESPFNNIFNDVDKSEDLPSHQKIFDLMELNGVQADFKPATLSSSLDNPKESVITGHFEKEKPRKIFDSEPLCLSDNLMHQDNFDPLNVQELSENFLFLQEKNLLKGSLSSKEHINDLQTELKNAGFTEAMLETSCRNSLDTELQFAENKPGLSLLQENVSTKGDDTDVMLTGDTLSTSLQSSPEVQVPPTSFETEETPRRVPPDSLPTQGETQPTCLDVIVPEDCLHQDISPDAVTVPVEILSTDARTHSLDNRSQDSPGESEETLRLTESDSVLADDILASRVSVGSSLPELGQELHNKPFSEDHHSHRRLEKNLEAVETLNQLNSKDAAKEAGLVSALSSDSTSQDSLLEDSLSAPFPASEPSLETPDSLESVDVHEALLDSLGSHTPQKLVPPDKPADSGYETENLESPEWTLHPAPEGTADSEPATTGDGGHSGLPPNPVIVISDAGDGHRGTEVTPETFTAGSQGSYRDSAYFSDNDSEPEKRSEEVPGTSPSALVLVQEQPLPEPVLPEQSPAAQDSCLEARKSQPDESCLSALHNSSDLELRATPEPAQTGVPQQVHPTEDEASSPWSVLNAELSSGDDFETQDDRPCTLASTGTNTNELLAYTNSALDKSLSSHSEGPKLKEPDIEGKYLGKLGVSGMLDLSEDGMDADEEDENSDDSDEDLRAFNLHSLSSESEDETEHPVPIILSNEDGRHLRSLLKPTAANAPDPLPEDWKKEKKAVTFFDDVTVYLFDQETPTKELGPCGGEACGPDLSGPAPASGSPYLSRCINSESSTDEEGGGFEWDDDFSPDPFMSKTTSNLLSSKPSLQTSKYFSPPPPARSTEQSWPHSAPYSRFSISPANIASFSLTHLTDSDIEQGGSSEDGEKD
UniProt P07948: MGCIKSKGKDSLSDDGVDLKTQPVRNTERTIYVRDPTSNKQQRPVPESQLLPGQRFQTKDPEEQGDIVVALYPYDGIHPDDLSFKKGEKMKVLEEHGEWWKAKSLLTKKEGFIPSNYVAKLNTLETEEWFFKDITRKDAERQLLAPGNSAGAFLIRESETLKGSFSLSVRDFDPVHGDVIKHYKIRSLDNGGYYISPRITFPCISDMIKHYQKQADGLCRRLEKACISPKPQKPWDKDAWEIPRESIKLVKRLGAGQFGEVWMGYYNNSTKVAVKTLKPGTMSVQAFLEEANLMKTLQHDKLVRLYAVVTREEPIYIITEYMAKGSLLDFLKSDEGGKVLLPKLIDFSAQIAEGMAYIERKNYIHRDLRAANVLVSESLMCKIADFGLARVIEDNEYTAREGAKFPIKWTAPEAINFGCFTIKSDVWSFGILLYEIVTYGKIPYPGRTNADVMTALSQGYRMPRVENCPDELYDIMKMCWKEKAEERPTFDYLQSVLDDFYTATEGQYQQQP
UniProt Q12851: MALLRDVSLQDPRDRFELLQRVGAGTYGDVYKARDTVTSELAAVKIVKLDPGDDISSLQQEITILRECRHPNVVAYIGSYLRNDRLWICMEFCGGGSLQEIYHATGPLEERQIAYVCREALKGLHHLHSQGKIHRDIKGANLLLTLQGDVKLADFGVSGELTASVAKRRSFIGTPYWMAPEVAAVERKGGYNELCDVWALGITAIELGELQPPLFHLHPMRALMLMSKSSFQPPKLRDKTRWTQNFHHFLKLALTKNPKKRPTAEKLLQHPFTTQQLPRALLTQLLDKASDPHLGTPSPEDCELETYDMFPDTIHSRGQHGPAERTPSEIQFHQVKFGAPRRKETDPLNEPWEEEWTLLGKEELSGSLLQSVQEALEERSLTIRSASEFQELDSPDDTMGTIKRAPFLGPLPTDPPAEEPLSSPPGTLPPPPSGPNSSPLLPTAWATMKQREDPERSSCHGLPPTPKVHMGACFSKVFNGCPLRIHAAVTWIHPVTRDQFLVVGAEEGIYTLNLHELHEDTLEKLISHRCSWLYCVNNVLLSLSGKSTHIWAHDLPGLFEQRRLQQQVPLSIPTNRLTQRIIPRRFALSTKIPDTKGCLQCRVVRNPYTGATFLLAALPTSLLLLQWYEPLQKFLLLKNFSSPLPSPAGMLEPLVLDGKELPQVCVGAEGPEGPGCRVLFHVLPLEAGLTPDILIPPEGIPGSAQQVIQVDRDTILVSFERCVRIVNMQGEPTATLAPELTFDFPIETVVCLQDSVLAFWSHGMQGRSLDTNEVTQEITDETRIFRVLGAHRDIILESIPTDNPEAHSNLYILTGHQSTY
UniProt P28482, whole entry: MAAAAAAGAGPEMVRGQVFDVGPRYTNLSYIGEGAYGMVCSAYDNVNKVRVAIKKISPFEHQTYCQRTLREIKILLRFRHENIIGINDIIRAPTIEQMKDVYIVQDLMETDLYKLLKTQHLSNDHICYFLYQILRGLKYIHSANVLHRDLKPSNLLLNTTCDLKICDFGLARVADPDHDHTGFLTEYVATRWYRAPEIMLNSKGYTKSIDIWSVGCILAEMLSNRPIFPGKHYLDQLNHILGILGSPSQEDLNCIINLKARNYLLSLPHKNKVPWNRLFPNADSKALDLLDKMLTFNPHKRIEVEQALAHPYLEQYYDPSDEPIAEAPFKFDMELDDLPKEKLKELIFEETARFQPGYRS
UniProt P31152, whole entry: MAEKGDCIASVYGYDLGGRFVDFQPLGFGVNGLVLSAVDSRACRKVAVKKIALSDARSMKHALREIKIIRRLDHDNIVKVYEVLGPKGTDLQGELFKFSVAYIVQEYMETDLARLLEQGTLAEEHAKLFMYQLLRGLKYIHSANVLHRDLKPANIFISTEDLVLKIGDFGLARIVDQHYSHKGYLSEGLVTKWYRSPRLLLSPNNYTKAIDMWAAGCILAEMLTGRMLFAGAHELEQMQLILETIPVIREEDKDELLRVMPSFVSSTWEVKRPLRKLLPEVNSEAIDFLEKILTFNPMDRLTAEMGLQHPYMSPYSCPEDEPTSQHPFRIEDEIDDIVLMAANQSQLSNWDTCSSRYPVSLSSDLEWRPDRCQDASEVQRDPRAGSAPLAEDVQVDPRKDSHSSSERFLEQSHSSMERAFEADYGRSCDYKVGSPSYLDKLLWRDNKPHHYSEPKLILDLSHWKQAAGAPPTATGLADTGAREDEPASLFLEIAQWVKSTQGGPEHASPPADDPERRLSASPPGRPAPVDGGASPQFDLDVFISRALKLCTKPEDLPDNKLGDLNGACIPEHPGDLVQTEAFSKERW
UniProt P49137, whole entry, looked up: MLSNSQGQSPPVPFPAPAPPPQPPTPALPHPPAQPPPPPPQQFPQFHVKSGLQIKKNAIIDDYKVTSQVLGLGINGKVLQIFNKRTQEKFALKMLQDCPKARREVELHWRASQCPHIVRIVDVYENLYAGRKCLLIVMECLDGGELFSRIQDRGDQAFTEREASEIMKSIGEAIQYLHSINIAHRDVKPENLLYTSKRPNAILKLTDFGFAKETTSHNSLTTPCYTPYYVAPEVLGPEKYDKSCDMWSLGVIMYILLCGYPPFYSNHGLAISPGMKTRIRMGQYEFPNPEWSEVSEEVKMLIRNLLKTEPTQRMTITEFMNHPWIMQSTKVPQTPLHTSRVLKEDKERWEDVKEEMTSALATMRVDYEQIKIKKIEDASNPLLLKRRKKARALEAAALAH
UniProt Q9BUB5: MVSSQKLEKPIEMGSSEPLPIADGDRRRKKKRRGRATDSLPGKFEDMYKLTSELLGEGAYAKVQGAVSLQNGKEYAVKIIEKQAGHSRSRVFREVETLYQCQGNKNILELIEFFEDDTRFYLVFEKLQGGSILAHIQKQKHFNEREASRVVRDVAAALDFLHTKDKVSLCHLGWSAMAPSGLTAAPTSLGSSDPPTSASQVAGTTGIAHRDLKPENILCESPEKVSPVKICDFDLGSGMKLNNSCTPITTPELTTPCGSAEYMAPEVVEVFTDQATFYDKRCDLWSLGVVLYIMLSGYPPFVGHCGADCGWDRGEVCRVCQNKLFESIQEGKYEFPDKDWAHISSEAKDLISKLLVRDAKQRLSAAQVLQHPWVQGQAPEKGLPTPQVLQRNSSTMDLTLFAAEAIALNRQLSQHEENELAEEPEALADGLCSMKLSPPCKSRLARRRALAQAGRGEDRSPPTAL
UniProt Q16620, whole entry, looked up: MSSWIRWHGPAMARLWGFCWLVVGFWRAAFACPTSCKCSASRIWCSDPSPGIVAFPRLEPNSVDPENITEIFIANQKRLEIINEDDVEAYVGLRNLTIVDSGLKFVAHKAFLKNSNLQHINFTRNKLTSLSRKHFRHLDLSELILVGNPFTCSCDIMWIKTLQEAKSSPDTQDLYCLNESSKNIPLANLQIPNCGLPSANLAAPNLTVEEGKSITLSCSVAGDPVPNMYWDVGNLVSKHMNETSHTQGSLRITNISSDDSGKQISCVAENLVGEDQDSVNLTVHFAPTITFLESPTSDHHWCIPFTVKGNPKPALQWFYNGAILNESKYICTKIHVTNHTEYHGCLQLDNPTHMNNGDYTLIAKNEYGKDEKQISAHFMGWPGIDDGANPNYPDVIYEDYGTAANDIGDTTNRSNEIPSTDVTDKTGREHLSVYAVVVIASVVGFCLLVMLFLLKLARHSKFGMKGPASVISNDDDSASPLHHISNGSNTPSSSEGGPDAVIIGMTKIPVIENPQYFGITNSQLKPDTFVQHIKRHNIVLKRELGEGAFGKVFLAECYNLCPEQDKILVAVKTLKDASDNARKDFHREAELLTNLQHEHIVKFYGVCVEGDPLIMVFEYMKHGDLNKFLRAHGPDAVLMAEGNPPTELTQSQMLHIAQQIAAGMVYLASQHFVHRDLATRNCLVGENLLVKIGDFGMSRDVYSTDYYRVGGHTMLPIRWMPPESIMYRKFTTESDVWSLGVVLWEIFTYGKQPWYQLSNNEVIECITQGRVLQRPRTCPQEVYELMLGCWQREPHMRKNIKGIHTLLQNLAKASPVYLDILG

What was measured:
Experiment in all cases: number of time points (of 5) at which kinase-Nluc abundance scored as decreased, DMSO-normalised (count); higher = more persistent destabilization
Settings in all cases: K562; 2-18 h
[1] = target: LMTK2 (UniProt Q8IWU2)
[2] = target: LYN (UniProt P07948)
[3] = target: MAP2K1 (UniProt Q02750)
[4] = target: MAP2K2 (UniProt P36507)
[5] = target: MAP4K2 (UniProt Q12851)
[6] = target: MAPK1 (UniProt P28482)
[7] = target: MAPK4 (UniProt P31152)
[8] = target: MAPKAPK2 (UniProt P49137)
[9] = target: MKNK1 (UniProt Q9BUB5)
[10] = target: NTRK2 (UniProt Q16620)

SMILES	number of time points [1]	number of time points [2]	number of time points [3]	number of time points [4]	number of time points [5]	number of time points [6]	number of time points [7]	number of time points [8]	number of time points [9]	number of time points [10]
N#CC(C#N)=NNc1cccc(Cl)c1 (2.5 µM)	0	0	0	0	0	0	0	0	0	0
O=c1cc(O)c2ccccc2o1 [4-Hydroxycoumarin] (10 µM)	0	0	0	0	0	0	0	0	0	0
C[C@H](Nc1ncnc2[nH]cnc12)c1nc2ccc(F)cc2c(=O)n1-c1ccccc1 [Acalisib] (10 µM)	0	0	0	0	0	0	0	0	0	
O=C(O)c1nn(Cc2ccc(Cl)cc2Cl)c2ccccc12 [Lonidamine] (10 µM)	0	0	0	0	0	0	0	0	0	0
CC(=O)OC(C)(C)/C=C/C(=O)[C@](C)(O)[C@H]1[C@H](O)C[C@@]2(C)[C@@H]3CC=C4[C@@H](C=C(O)C(=O)C4(C)C)[C@]3(C)C(=O)C[C@]12C [Cucurbitacin E] (2.5 µM)	2	0	0	0	0	0	2	0	1	0
CC(=O)O[C@H]1[C@H]2[C@@H](OC(=O)Cc3ccccc3)[C@@H](C)C[C@]2(OC(C)=O)C(=O)/C(C)=C/[C@@H]2[C@H](CC[C@@]13CO3)C2(C)C [Euphorbiasteroid] (10 µM)	0	0	0	0	0	0	0	0	0	0
CN(C)C(=O)c1ccc(Cn2c(C(=O)O)cc3c(Br)cc(Sc4ccc(Cl)c(Cl)c4)cc32)cc1 [Rheb inhibitor NR1] (10 µM)	0	0	0	0	0	0	0	0	0	
O=C(N[C@@H](COc1ccc2[nH]c(=O)[nH]c2c1)c1ccccc1)c1cccn(Cc2ccc(F)c(F)c2)c1=O (2.5 µM)	1	0	0	0	0	0	0	0	0	0
CC1C(=O)OC2C(O)C34C5OC(=O)C3(OC3OC(=O)C(O)C34C(C(C)(C)C)C5O)C12O (configuration not stated) [Ginkgolide C] (10 µM)	0	0	0	0	0	0	0	0	0	0
C[S+]([O-])/C=C/CCN=C=S (configuration not stated) [Sulforaphene] (10 µM)	0	0	0	0	0	0	0	0	0	0
O=[N+]([O-])/C=C/c1ccc2c(c1)OCO2 (2.5 µM)	0	0	0	0	0	0	0	0	0	0
NCCc1cn(S(=O)(=O)c2c(Cl)nc3sccn23)c2ccccc12 (10 µM)	0	0	0	0	0	0	0	0	0	0
O=Cc1cn(Cc2ccc(Cl)cc2)c2ccccc12 [Oncrasin-1] (10 µM)	0	0	0	0	0	0	0	0	0	0
O=C1c2ccccc2C(=O)c2c1cccc2-c1cnn(C2CCNCC2)c1 [PDK4-IN-1 (hydrochloride)] (10 µM)	0	1	0	0	0	0	0	0	0	0
C[C@@H]1CC[C@H]2[C@@H](C)C(=O)O[C@@H]3O[C@@]4(C)CC[C@@H]1[C@]32OO4 [Artemisinin] (10 µM)	0	0	0	0	0	0	0	0	0	0
CC(=O)c1c(O)c(C)c(O)c(Cc2c(O)c3c(c(C(=O)/C=C/c4ccccc4)c2O)OC(C)(C)C=C3)c1O [Rottlerin] (2 µM)	1	0	0	0	0	0	0	0	0	0
O=c1[nH]c2ccccc2n1C1CCN(CCCC(c2ccc(F)cc2)c2ccc(F)cc2)CC1 [Pimozide] (2.5 µM)	0	0	0	0	0	0	0	0	0	0
C=C[C@H]1CN2CC[C@]3(C(=O)Nc4ccccc43)[C@@H]2C[C@@H]1/C(=C\OC)C(=O)OC [Corynoxeine] (2 µM)	0	0	0	0	0	0	0	0	0	0
C[C@H]1CC[C@]2(NC1)O[C@H]1C[C@H]3[C@@H]4CC[C@H]5C[C@@H](O[C@@H]6O[C@H](CO)[C@H](O[C@@H]7O[C@H](CO)[C@@H](O)[C@H](O[C@@H]8OC[C@@H](O)[C@H](O)[C@H]8O)[C@H]7O[C@@H]7O[C@H](CO)[C@@H](O)[C@H](O)[C@H]7O)[C@H](O)[C@H]6O)CC[C@]5(C)[C@H]4CC[C@]3(C)[C@H]1[C@@H]2C [Tomatine] (2.5 µM)	2	3	0	0	0	0	0	0	0	0
C=CC(=O)Nc1ccc2[nH]c(=O)n(C3CCN(Cc4ccc(-c5nc6cc[nH]c(=O)c6cc5-c5ccccc5)cc4)CC3)c2c1 [Borussertib] (10 µM)	0	0	0	0	0	0	0	0	0	0
CC(C)(C)c1cc(C=C(C#N)C#N)cc(Br)c1O (2.5 µM)	0	0	0	0	0	0	0	0	0	0
CCCCCCCCCCCCCCCCOC[C@H](COP(=O)([O-])OCC[N+](C)(C)C)OC(C)=O (10 µM)	0	0	0	0	0	0	0	0	0	0
CCCS(=O)(=O)Nc1ccc(F)c(-n2cc(-c3cncnc3)c3nc(N(C)C4CCN(CC)CC4)ccc32)c1F (2 µM)	0	0	0	0	0	0	0	0	0	0
CC1=C[C@]23C(=O)[C@@H](C=C(CO)[C@@H](O)[C@]2(O)[C@H]1O)[C@H]1[C@@H](C[C@H]3C)C1(C)C [Ingenol] (10 µM)	0	0	0	0	0	0	0	0	0	0
CCOC(=O)c1c(/C(C#N)=C\N)c2ccc(Cl)c(Cl)c2n1C (10 µM)	0	0	0	0	0	0	0	0	0	0
COc1ccc(/C=C/c2cc(OC)c(OC)c(OC)c2)cc1 (2.5 µM)	1	1	0	0	0	0	0	0	2	
COc1cc2c(cc1F)C(c1ccccc1Cl)=Nc1c(n[nH]c1C)N2 (0.5 µM)	0	0	0	0	0	0	0	0	0	0
COc1ccc2c(c1)[nH]c1c(C)nccc12 [Harmine] (10 µM)	0	0	0	0	0	0	0	0	0	0
C/C=C(/C)C(=O)O[C@H]1[C@@H]2[C@H](C)C(=O)O[C@@H]2C[C@@H](C)[C@@H]2C=CC(=O)[C@]21C [Brevilin A] (2.5 µM)	0	0	0	0	0	0	0	0	0	0

Copied from the list.
Entry for COc1ccc2c(c1)[nH]c1c(C)nccc12 [Harmine] (10 µM) under number of time points [9]: 0
Entry for C=CC(=O)Nc1ccc2[nH]c(=O)n(C3CCN(Cc4ccc(-c5nc6cc[nH]c(=O)c6cc5-c5ccccc5)cc4)CC3)c2c1 [Borussertib] (10 µM) under number of time points [5]: 0
